Assay results as given in PubChem BioAssay AID493027 (The Scripps Research Institute Molecular Screening Center, 2011).
Where “and” joins values, the source holds several entries; their conditions need not be identical. Equal entries are not always repeated. Screen size: about 2,000 compounds; about 45 (2%) were called active.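 The calls were made as follows: active = inhibition above the screen-wide mean inhibition plus 3 SD (cut at about 44% in these data); inactive = the rest.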 The list shows a part of the results.

The chains behind the UniProt entries cited, without tags or fusion partners. Where a name states a change or a piece, a line headed by the entry shows the natural chain unless it says otherwise.
UniProt O60240: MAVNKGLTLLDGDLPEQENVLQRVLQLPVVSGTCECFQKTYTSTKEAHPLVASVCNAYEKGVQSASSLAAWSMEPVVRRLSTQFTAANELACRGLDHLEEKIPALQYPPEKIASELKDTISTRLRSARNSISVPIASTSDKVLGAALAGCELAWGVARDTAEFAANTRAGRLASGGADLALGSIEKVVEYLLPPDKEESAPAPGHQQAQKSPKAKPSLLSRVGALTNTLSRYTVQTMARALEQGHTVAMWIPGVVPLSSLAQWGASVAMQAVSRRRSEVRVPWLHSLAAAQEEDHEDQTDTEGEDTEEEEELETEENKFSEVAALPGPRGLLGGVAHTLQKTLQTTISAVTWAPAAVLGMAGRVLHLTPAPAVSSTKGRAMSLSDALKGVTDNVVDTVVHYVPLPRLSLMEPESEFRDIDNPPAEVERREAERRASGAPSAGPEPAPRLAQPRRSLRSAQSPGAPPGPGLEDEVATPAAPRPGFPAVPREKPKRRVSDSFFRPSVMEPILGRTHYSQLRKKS
UniProt Q8WTS1: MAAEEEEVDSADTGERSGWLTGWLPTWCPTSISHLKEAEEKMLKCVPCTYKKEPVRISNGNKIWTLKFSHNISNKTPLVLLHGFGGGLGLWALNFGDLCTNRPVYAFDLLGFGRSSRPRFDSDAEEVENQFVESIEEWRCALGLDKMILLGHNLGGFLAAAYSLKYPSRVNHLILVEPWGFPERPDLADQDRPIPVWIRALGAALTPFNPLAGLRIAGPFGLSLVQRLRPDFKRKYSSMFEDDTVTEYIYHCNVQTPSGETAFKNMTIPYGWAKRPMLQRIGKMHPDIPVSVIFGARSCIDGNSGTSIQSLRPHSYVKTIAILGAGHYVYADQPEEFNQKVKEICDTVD

target: Perilipin-1 (Homo sapiens) + 1-acylglycerol-3-phosphate O-acyltransferase ABHD5 (Homo sapiens) (UniProt O60240+Q8WTS1); test: ABHD5-PLIN1 interaction inhibitors, pilot screen, cell lysate, split luciferase complementation, luminescence, NIH validation set (AID 493027);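 also: 0% = DMSO wells with the 100% control not disclosed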; conditions: split G. princeps luciferase complementation, 4 h; at 7.9 µM, hits give high values

inhibition, inactive:
CN(C)CCOc1ccc(Cl)cc1C(C)(C)C -6.24%
O=C(O)C1CSC(c2ccco2)N1 (centres undefined) 14%
CC(C)(C)N1NC2(CCCCC2)NC1=S -12.9%
COc1ccc(CC(=O)Nc2cccc(C(=O)Nc3ccccc3C(=O)O)c2)cc1OC -0.1%
CC(=O)C1=C(NC(=O)c2ccc(C(F)(F)F)cc2)C[C@@H]2[C@H]1C2(C)C -18.5%
CSCC[C@H](NC(=O)NC1CCCC1)C(=O)O 1.38%
COc1ccc2c(C=O)cn(C)c2c1 -6.17%
COc1ccc(-c2cc(=O)oc3cc(OC(C)C(=O)O)ccc23)cc1 (centres undefined) -3.57%
Cc1c(Cc2ccccc2)c(=O)oc2c(CN(C)C)c(O)c(Cl)cc12 4.84%
CC(C)CC(NC(=O)CNC(=O)C1O[C@@H]2OC(C)(C)O[C@@H]2[C@H]2OC(C)(C)O[C@@H]12)C(=O)O (some centres undefined) -0.05%
COC(=O)[C@H]1[C@H]2C[C@@H]3c4[nH]c5cc(OC)ccc5c4CCN3C[C@H]2C[C@@H](OC(=O)c2ccc(N)cc2)[C@@H]1OC 12.1%
OCCN(CCO)c1nc(N2CCCCC2)c2nc(N(CCO)CCO)nc(N3CCCCC3)c2n1 8.79%
Cc1ccc(C2CC(=O)C(C=NCCN3CCN(CC(=O)Nc4cc(C)cc(C)c4)CC3)=C(O)C2)cc1 (centres undefined) -0.07%
CC(C)C12CN3CC(C(C)C)(CN(C1)C3c1ccccc1)C2O (centres undefined) -10.6%
CC(=O)C1=C(Nc2ccc(C)cc2)CC(C)(O)C(C(C)=O)C1c1ccco1 (centres undefined) 5.83%
O=[N+]([O-])c1ccc2cn[nH]c2c1 0.45%
CCn1c(=N)c(C(=O)NC)cc2c(=O)n3cccc(C)c3nc21 -12.9%
COc1ccc(C(=O)NC(=O)NC2(C(Cl)(Cl)Cl)OCCO2)cc1 -6.58%
Cc1ccc(CSCC(=O)NCCCN2CCOCC2)cc1 -1.33%
O=C1N[C@@H](Cc2cnc[nH]2)C(=O)N2CCC[C@@H]12 -11.4%
C[C@@H]1C[C@H]2[C@@H]3CCC4=CC(=O)C=C[C@]4(C)[C@@]3(F)[C@@H](O)C[C@]2(C)[C@@]1(O)C(=O)COP(=O)(O)O -10.7%
Nc1nc(Cl)nc2c1ncn2[C@@H]1O[C@H](CO)[C@@H](O)[C@H]1O -5.45%
CCOC(=O)c1oc2cc(O)cc(C)c2c(=O)c1-c1cscn1 6.32%
COc1ccc(N2C(=O)C3C(C2=O)C(C(=O)c2ccccc2)N2CCCC32)cc1 (centres undefined) 15.9%
COc1cccc(C2CCCN2Cc2nc(CCC(C)C)no2)c1 (centres undefined) -12.7%
NC(=O)C1CCCNC1 (centres undefined) -18.5%
CCCCOn1c(C)c(C(C)=O)c2c3no[n+]([O-])c3ccc21 -2.36%
CC(C)COC(=O)C1C(=O)CC(C)(O)C(C(=O)OCC(C)C)C1c1cccnc1 (centres undefined) -3.21%
Cc1cc(=O)oc2c(CN(C)Cc3ccccc3)c(O)ccc12 -5.21%
O=C(O)c1ccc(-c2ccc(O)c(F)c2)cc1 -1.99%
Cn1cc(CN2CCCC(CO)(Cc3cccc(Cl)c3)C2)cn1 (centres undefined) -10.7%
O=C1CC(c2ccc(O)cc2)Oc2cc(O)cc(O)c21 (centres undefined) 0.6%
Cc1cn([C@H]2C=C[C@@H](CO)O2)c(=O)[nH]c1=O -3.68%
CCOc1ccc(C(=O)N2CCCC2C(=O)O)cc1 (centres undefined) -4.07%
CC(=O)NS(=O)(=O)c1ccc(N)cc1 2.8%
O=C(N/N=C\c1cc([N+](=O)[O-])ccc1N1CCOCC1)c1ccccn1 -3.78%
COc1ccc(C(=O)CC2OC(=O)c3c2ccc(OC)c3OC)cc1 (centres undefined) 2.22%
CC(=O)OCC(=O)[C@@]12OC(C)(C)O[C@@H]1C[C@H]1[C@@H]3C[C@H](F)C4=CC(=O)C=C[C@]4(C)[C@@]3(F)[C@@H](O)C[C@@]12C 6.92%
COc1ccc(/C=C\c2cc(OC)c(OC)cc2CC[N+](C)(C)C)cc1OC -4.32%
c1ccc2c(CC3=NCCN3)cccc2c1 -5.66%
CCN(CC)CC(=O)Nc1c(C)cccc1C -5.47% and 3.97%
CC(=O)CSc1ncnc2c1cnn2-c1ccccc1 7.34%
CC(C)C12CN3CC(C(C)C)(CN(C1)C31C(=O)Nc3ccccc31)C2=O (centres undefined) -9.01%
CCOC(=O)COc1ccc2c(=O)c(-c3ccccc3)coc2c1 -3.06%
NC(N)=NC(=O)c1nc(Cl)c(N)nc1N 3.33%
COc1ccc(Cc2noc(CN(C)CCN3CCc4ccccc4C3)n2)cc1OC -4.02%
CC(=O)CCc1oc2ccccc2c1-c1ccccc1 -1.83%
Cc1cccc(C)c1NS(=O)(=O)c1ccc(NC(=O)c2ccc(Cl)c([N+](=O)[O-])c2)cc1 26.2%
CCc1ccc(/C=C2\SC(=S)N(CCC(=O)N3CCN(C)CC3)C2=O)cc1 -12.7%
COC(=O)c1cc(=O)c2ccc(OC)cc2o1 -10.3%
CCOC(=O)/C=C1\NC(C)(C)Cc2cc(OC)c(OC)cc21 -2.16%
CC12CN3CC(C)(CN(C1)C3c1ccc(Br)cc1O)C2 (centres undefined) 1.91%
O=S(=O)(NCCCCCNS(=O)(=O)c1ccccc1)c1ccccc1 1.18%
CC(C)C12CN3CC(C(C)C)(CN(C1)C3c1ccccc1O)C2=O (centres undefined) 0.8%
NS(=O)(=O)c1cc2c(cc1C(F)(F)F)NCNS2(=O)=O -0.13%
CC(O)Cn1cnc2c1c(=O)n(C)c(=O)n2C (centres undefined) 0.82%
O=C(NC(=S)N1CCCCC1)c1cccnc1 -3.63%
COc1cc(CNCCc2ccccc2F)ccc1OCC(=O)N1CCCCC1 -13%
COc1ccc2nc(Nc3nc(CSc4ccc(C)cc4)cc(=O)[nH]3)nc(C)c2c1 9.69%
O=c1c2[nH]c3ccccc3c2ncn1CCC1=CCCCC1 -7.25%
Nc1nc2c(ncn2COCCO)c(=O)[nH]1 -2.87%
Cc1ccccc1NC(=O)NCCc1c[nH]c2ccccc12 -4.18%
Cn1cnc2c1c(=O)n(CC(O)CO)c(=O)n2C (centres undefined) -7.24%
CC(=O)OCC(=O)[C@@]1(O)[C@H](C)C[C@H]2[C@@H]3CCC4=CC(=O)C=C[C@]4(C)[C@@]3(F)[C@@H](O)C[C@@]21C -9.43%
COc1ccc(C(=O)Nc2cccnc2)cc1C(=O)Nc1cccnc1 -3.28%
CCC12CN3CC(CC)(CN(C1)C31C(=O)N(C)c3ccc(C)cc31)C2=O (centres undefined) 0.44%
CCOCCn1c(C(C)O)nc2ccccc21 (centres undefined) -7.89%
COc1cc2c(cc1OC)C(c1ccccc1)=NCC2 1.37%
Cc1occc(=O)c1O 0.1%
O=C(O)c1ccc(OCCn2ccnc2)cc1 -0.39%
C#C[C@]1(O)CC[C@H]2[C@@H]3CCc4cc(O)ccc4[C@H]3CC[C@@]21C 14.4%
Cc1oc2cc(O)cc(O)c2c(=O)c1-c1ccc2c(c1)OCCCO2 13.7%
CC(C(=O)O)c1cccc(C(=O)c2ccccc2)c1 (centres undefined) -9.32%
COc1cc(SC)ccc1C(=O)NC(C)C 4.38%
COc1ccc(C(=O)NCCC2=CCCCC2)cc1[N+](=O)[O-] -0.76%
CCOC(=O)c1ncn2c1CN(C)C(=O)c1cc(F)ccc1-2 -14.2%
CCOC(=O)Cc1c(C)nc(N)[nH]c1=O -11.9%
CC(=O)N1CCN2C(=O)C1CCCC(=O)c1cc(C(C)C)ccc12 (centres undefined) 0.46%
CCCC1O[C@@H]2C[C@H]3[C@@H]4CCC5=CC(=O)C=C[C@]5(C)[C@H]4[C@@H](O)C[C@]3(C)[C@]2(C(=O)CO)O1 (some centres undefined) 0.23%
CC1(C)Cc2nc3oc4c(NCc5ccccc5)ncnc4c3cc2CO1 6.64%
Cc1ccc([N+](=O)[O-])cc1NC1OC(CO)C(O)C1O (centres undefined) 2.85%
Cc1ccccc1NC(=O)c1c(C)cc(=O)oc1C 1.38%
O=C(CNC(=O)OCc1ccccc1)Oc1cc2oc(=O)cc(-c3ccccc3)c2cc1Cl 4.96%
Cc1cc(NS(=O)(=O)c2ccc(N)cc2)no1 -8.07%
NS(=O)(=O)c1cc2c(cc1Cl)NC(CSCc1ccccc1)=NS2(=O)=O -9.45%
CCNC(=O)c1sc2cc(C)ccc2c1Cl -4.33%
COc1cc(NC(=O)N[C@@H](Cc2ccccc2)C(=O)O)cc(OC)c1 -9.41%
Cn1c2ccc(CC(=O)O)cc2c2cc(CC(=O)O)ccc21 3.75%
CC1(C)S[C@@H]2[C@H](NC(=O)C(C(=O)O)c3ccccc3)C(=O)N2[C@H]1C(=O)O (some centres undefined) -6.15%
OCC1(CCOc2ccccc2)CCN(CCCn2cccn2)CC1 -3.46%
CC(=O)[C@@]1(O)CC[C@H]2[C@@H]3C[C@H](C)C4=CC(=O)CC[C@]4(C)[C@H]3CC[C@@]21C -8%
Cc1ccc2nc(NC3=NC(CC(=O)O)C(=O)N3)nc(C)c2c1 (centres undefined) -7.42%
COc1ccc2[nH]c3c(c2c1)CCn1c-3nc2ccccc2c1=O -4.4%
COc1cc2c3c(c1)C1(C(=O)N3C(C)(C)C=C2C)C(C#N)=C(N)Oc2cc(C)oc(=O)c21 (centres undefined) -0.82%

6 consecutive entries from above:
inhibition, inactive:
O=[N+]([O-])c1ccc2cn[nH]c2c1 0.45%
CCn1c(=N)c(C(=O)NC)cc2c(=O)n3cccc(C)c3nc21 -12.9%
COc1ccc(C(=O)NC(=O)NC2(C(Cl)(Cl)Cl)OCCO2)cc1 -6.58%
Cc1ccc(CSCC(=O)NCCCN2CCOCC2)cc1 -1.33%
O=C1N[C@@H](Cc2cnc[nH]2)C(=O)N2CCC[C@@H]12 -11.4%
C[C@@H]1C[C@H]2[C@@H]3CCC4=CC(=O)C=C[C@]4(C)[C@@]3(F)[C@@H](O)C[C@]2(C)[C@@]1(O)C(=O)COP(=O)(O)O -10.7%
